Experimental data published in ChEMBL document CHEMBL4303122, “Identification of potential treatments for COVID-19 through artificial intelligence-enabled phenomic analysis of human cells infected with SARS-CoV-2” (2020).
In all, about 1,600 compounds were measured (“Hit score”: median about 0.13, highest 2% from about 0.46 on). The list shows a part of the results.

test system: SARS-CoV-2; experiment: Antiviral activity against SARS-CoV-2 (USA-WA1/2020 strain) measured by imaging in HRCE cells at MOI 0.4 after 96 hrs (reported as hit score from 0-1 for on-disease vs off-disease activity: scores >0.6 considered hits); assay type: functional, Homo sapiens

| Compound | Hit score |
| --- | --- |
| Cc1cn([C@H]2O[C@@H](CO)[C@H](O)[C@H]2F)c(=O)[nH]c1=O [CLEVUDINE] | 0.0509 |
| Cc1oncc1C(=O)Nc1ccc(C(F)(F)F)cc1 [LEFLUNOMIDE] | 0.04922 |
| COc1ccc(C(Cl)=C(c2ccc(OC)cc2)c2ccc(OC)cc2)cc1 [CHLOROTRIANISENE] | 0.1443 |
| CC1CC(OC(=O)C(O)c2ccccc2)CC(C)(C)C1 (stereo unspecified) [CYCLANDELATE] | 0.1398 |
| CC(C)(C)C(=O)OCOC(=O)[C@@H]1N2C(=O)[C@@H](/N=C/N3CCCCCC3)[C@H]2SC1(C)C [AMDINOCILLIN PIVOXIL] | 0.008594 |
| O=c1ccc2ccc(OCCCCN3CCN(c4cccc5sccc45)CC3)cc2[nH]1 [BREXPIPRAZOLE] | 0.1154 |
| CN(C)/N=N/c1[nH]cnc1C(N)=O [DACARBAZINE] | 0.157 |
| CC(=O)O[C@H]1C[C@@H]2CC[C@@H]3[C@H](CC[C@@]4(C)[C@H]3C[C@H]([N+]3(C)CCCCC3)[C@@H]4OC(C)=O)[C@@]2(C)C[C@@H]1N1CCCCC1 [VECURONIUM] | 0.1052 |
| CCN(CC)CCCN(c1ccccc1)C1Cc2ccccc2C1.Cl [APRINDINE HYDROCHLORIDE] | 0.2277 |
| Cn1c(NCCN(CCO)CCCc2ccc([N+](=O)[O-])cc2)cc(=O)n(C)c1=O [NIFEKALANT] | 0.204 |
| CC(C)Cc1ccc(C(C)C(=O)NCCO)cc1 (stereo unspecified) [MABUPROFEN] | 0.24 |
| Cc1ccc(Nc2c(F)cccc2Cl)c(CC(=O)O)c1 [LUMIRACOXIB] | 0.03253 |
| CN1CCc2c(c3ccccc3n2Cc2ccccc2)C1 [MEBHYDROLIN] | 0.1177 |
| CCC1C(C)=NN=C(c2ccc(OC)c(OC)c2)c2cc(OC)c(OC)cc21 (stereo unspecified) [TOFISOPAM] | 0.2037 |
| Nc1nc(Cl)nc2c1ncn2[C@H]1C[C@H](O)[C@@H](CO)O1 [CLADRIBINE] | 0.07801 |
| CCC(=O)O[C@@H](O[P@](=O)(CCCCc1ccccc1)CC(=O)N1C[C@H](C2CCCCC2)C[C@H]1C(=O)O)C(C)C [FOSINOPRIL] | 0.3051 |
| Oc1ncnc2[nH]ncc12 [ALLOPURINOL] | 0.02121 |
| C=C1CC[C@H](O)C/C1=C/C=C1\CCC[C@]2(C)[C@@H]([C@H](C)CC[C@@H](O)C(C)(C)O)CC[C@@H]12 [SECALCIFEROL] | 0.3632 |
| CC(C)(C)NCC(O)c1cc(Cl)c(N)c(C(F)(F)F)c1 (stereo unspecified) [MABUTEROL] | -0.1589 |
| CNCCCC1c2ccccc2C=Cc2ccccc21 [PROTRIPTYLINE] | 0.03947 |
| CCOC(=O)C1=C[C@@H](OC(CC)CC)[C@H](NC(C)=O)[C@@H](N)C1 [OSELTAMIVIR] | 0.1622 |
| O=C(O)CC(O)C(=O)O (stereo unspecified) [MALIC ACID] | 0.2337 |
| C[N+]1(CCCCC[N+]2(C)CCCC2)CCCC1 [PENTOLINIUM] | 0.06742 |
| Cc1onc(-c2ccccc2)c1-c1ccc(S(N)(=O)=O)cc1 [VALDECOXIB] | 0.2792 |

Entries shown so far containing a carbonyl joined to an NH by a bond outside any ring:

| Compound | Hit score |
| --- | --- |
| Cc1oncc1C(=O)Nc1ccc(C(F)(F)F)cc1 [LEFLUNOMIDE] | 0.04922 |
| CN(C)/N=N/c1[nH]cnc1C(N)=O [DACARBAZINE] | 0.157 |
| CC(C)Cc1ccc(C(C)C(=O)NCCO)cc1 (stereo unspecified) [MABUPROFEN] | 0.24 |
| CCOC(=O)C1=C[C@@H](OC(CC)CC)[C@H](NC(C)=O)[C@@H](N)C1 [OSELTAMIVIR] | 0.1622 |

Continuation.

| Compound | Hit score |
| --- | --- |
| COc1ccc(CCN(C)CCCC(C#N)(c2ccc(OC)c(OC)c2)C(C)C)cc1OC (stereo unspecified) | 0.1784 |
| CCC(=O)O[C@]1(C(=O)COC(C)=O)CC[C@H]2[C@@H]3C[C@H](C)C4=CC(=O)C=C[C@]4(C)[C@H]3[C@@H](O)C[C@@]21C [METHYLPREDNISOLONE ACEPONATE] | 0.1295 |
| CCCCC(F)(F)[C@@]1(O)CC[C@H]2[C@@H](CC(=O)[C@@H]2CCCCCCC(=O)O)O1 [LUBIPROSTONE] | 0.08446 |
| N#Cc1nn(-c2c(Cl)cc(C(F)(F)F)cc2Cl)c(N)c1[S+]([O-])C(F)(F)F (stereo unspecified) [FIPRONIL] | 0.1953 |
| O=C(O)c1cc(O)c2c3nc4ccccc4oc-3cc(=O)c2n1 [PIRENOXINE] | 0.3657 |
| COc1cc([C@@H]2c3cc4c(cc3[C@H](O)[C@H]3COC(=O)[C@H]23)OCO4)cc(OC)c1OC [PODOFILOX] | -0.2021 |
| CCN(CC)C(=O)c1cccc(C)c1 [DIETHYLTOLUAMIDE] | 0.2811 |
| CC(C)(C)NCC(O)COc1ccc(NC(=O)NC2CCCCC2)cc1 (stereo unspecified) [TALINOLOL] | 0.1441 |
| CN(C)CC/C=C1/c2ccccc2Sc2ccc(Cl)cc21 [CHLORPROTHIXENE] | 0.106 |
| O=C(O)CSc1nnc(Br)n1-c1ccc(C2CC2)c2ccccc12 | 0.2055 |
| C[C@]12C=CC(=O)C=C1CC[C@@H]1[C@@H]2[C@@H](O)C[C@@]2(C)[C@H]1CC[C@]2(O)C(=O)COP(=O)([O-])[O-].[Na+].[Na+] [PREDNISOLONE SODIUM PHOSPHATE] | 0.07703 |
| COc1ccc(C(C)(C)C)cc1CN[C@H]1C2CCN(CC2)[C@H]1C(c1ccccc1)c1ccccc1 [MAROPITANT] | -0.04728 |
| COc1cc(O)c(C(=O)c2ccccc2)cc1S(=O)(=O)O [SULISOBENZONE] | 0.08083 |
| Nc1cccc2c1C(=O)N(C1CCC(=O)NC1=O)C2=O (stereo unspecified) [POMALIDOMIDE] | 0.3563 |
| N=C(N)NC(=O)Cc1c(Cl)cccc1Cl [GUANFACINE] | 0.1167 |
| OCC(O)COc1ccc(Cl)cc1 (stereo unspecified) | -0.006972 |
| CC1(C)CCC(C)(C)c2cc(NC(=O)c3ccc(C(=O)O)cc3)ccc21 [TAMIBAROTENE] | 0.3232 |
| N[C@@H](Cc1cc(I)c(Oc2cc(I)c(O)c(I)c2)c(I)c1)C(=O)O [LEVOTHYROXINE] | 0.1758 |
| CN1c2ccccc2C(NCCCCCCC(=O)O)c2ccc(Cl)cc2S1(=O)=O (stereo unspecified) [TIANEPTINE] | 0.1303 |
| C/C=C(/C)C(=O)O[C@H]1C(C)=C[C@]23C(=O)[C@@H](C=C(CO)[C@@H](O)[C@]12O)[C@H]1[C@@H](C[C@H]3C)C1(C)C [INGENOL MEBUTATE] | 0.3195 |
| COC(=O)Nc1nc2ccccc2[nH]1 [CARBENDAZIM] | 0.1738 |
| CC1CNc2c(cccc2S(=O)(=O)N[C@@H](CCCNC(=N)N)C(=O)N2CC[C@@H](C)C[C@@H]2C(=O)O)C1 (stereo partly specified) [ARGATROBAN] | 0.1407 |
| CN(C)CCN(Cc1ccccc1)c1ccccn1 [TRIPELENNAMINE] | 0.1524 |
| CN1C(=O)CC(c2ccccc2)C1=O (stereo unspecified) [PHENSUXIMIDE] | 0.05634 |

| Compound | Hit score |
| --- | --- |
| CN(C(=O)C(Cl)Cl)c1ccc(O)cc1 [DILOXANIDE] | -0.0329 |
| CCCSc1nc(N[C@@H]2C[C@H]2c2ccc(F)c(F)c2)c2nnn([C@@H]3C[C@H](OCCO)[C@@H](O)[C@H]3O)c2n1 [TICAGRELOR] | 0.1754 |
| Clc1ccc(CO/N=C(\Cn2ccnc2)c2ccc(Cl)cc2Cl)c(Cl)c1 [OXICONAZOLE] | 0.1067 |
| N=C(N)c1ccc(/C=C/c2ccc(C(=N)N)cc2O)cc1 [HYDROXYSTILBAMIDINE] | 0.4886 |
| O=C(Nc1ccc(C(O)(C(F)(F)F)C(F)(F)F)cc1)c1ccc(C(F)(F)F)cc1 | 0.2642 |
| O=C(O)C1=C(CSc2nnnn2CS(=O)(=O)O)CS[C@@H]2[C@H](NC(=O)[C@H](O)c3ccccc3)C(=O)N12 [CEFONICID] | 0.05091 |
| CCCc1c2oc(C(=O)O)cc(=O)c2cc2c(=O)cc(C(=O)O)n(CC)c12 [NEDOCROMIL] | 0.05621 |
| COc1cc2nc(N(C)CCCNC(=O)C3CCCO3)nc(N)c2cc1OC (stereo unspecified) [ALFUZOSIN] | 0.1086 |
| CCN(CC)c1ccc(C(=C2C=CC(=[N+](CC)CC)C=C2)c2ccccc2)cc1 | 0.02153 |
| CCCCCCCCCCCCCCCC(=O)OC[C@@H](NC(=O)C(Cl)Cl)[C@H](O)c1ccc([N+](=O)[O-])cc1 [CHLORAMPHENICOL PALMITATE] | 0.136 |
| Cc1cccc(O)c1 [METACRESOL] | -0.03642 |
| NC(=O)c1nc(F)cnc1O | 0.1191 |
| CO[C@@]1(NC(=O)CSC[C@@H](N)C(=O)O)C(=O)N2C(C(=O)O)=C(CSc3nnnn3C)CS[C@@H]21 [CEFMINOX] | 0.1316 |
| N[C@@H](Cc1c[nH]c2ccc(O)cc12)C(=O)O [OXITRIPTAN] | 0.1749 |
| CSCC1CN(/N=C/c2ccc([N+](=O)[O-])o2)C(=O)O1 (stereo unspecified) | -0.03043 |
| CNS(=O)(=O)CCc1ccc2[nH]cc(C3CCN(C)CC3)c2c1 | 0.2212 |
| CC(=O)Oc1ccccc1C(=O)O [ASPIRIN] | 0.102 |
| CO[C@H]1C[C@@H]2CC[C@@H](C)[C@@](O)(O2)C(=O)C(=O)N2CCCC[C@H]2C(=O)O[C@H]([C@H](C)C[C@@H]2CC[C@H](n3cnnn3)[C@H](OC)C2)CC(=O)[C@H](C)/C=C(\C)[C@@H](O)[C@@H](OC)C(=O)[C@H](C)C[C@H](C)/C=C/C=C/C=C/1C [ZOTAROLIMUS] | 0.6315 |
| CC(CCc1ccccc1)NC(C)C(O)c1ccc(O)cc1 (stereo unspecified) [NYLIDRIN] | -0.0447 |
| C#Cc1cccc(Nc2ncnc3cc4c(cc23)OCCOCCOCCO4)c1 [ICOTINIB] | 0.1043 |
| C=CC(=O)Nc1cc(Nc2nccc(-c3cn(C)c4ccccc34)n2)c(OC)cc1N(C)CCN(C)C [OSIMERTINIB] | 0.3216 |
| O=[N+]([O-])c1cncn1CCN1CCOCC1 [NIMORAZOLE] | 0.1444 |
| C[C@@H](c1nc(-c2ccc(C#N)cc2)cs1)[C@](O)(Cn1cncn1)c1cc(F)ccc1F [ISAVUCONAZOLE] | 0.1201 |
